No constants are given. Whether binding was seen depends on the method and setting. In cells and extracts the contact can be indirect. These calls come from enrichment with a bait or labelling near it, and not all partners need be listed.
Target: Flag-NEK6-WT (human) (UniProt Q9HC98)
Experiment: affinity purification with mass spectrometry; IP by Flag tag from NCI/ADR-RES cells loaded with control vector or Flag-NEK6; silver-stained SDS-PAGE gel cut and analysed by LC-MS/MS

By UniProt entry, the sequences of proteins in these tests, tags left out.
UniProt Q9HC98: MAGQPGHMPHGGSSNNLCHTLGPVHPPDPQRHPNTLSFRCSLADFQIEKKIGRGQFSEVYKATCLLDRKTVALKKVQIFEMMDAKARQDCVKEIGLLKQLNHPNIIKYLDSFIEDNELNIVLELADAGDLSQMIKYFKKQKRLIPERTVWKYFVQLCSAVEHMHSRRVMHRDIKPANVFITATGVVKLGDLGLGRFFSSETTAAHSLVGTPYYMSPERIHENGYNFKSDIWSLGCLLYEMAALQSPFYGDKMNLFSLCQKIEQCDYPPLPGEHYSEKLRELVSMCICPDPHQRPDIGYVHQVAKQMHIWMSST
UniProt O43524: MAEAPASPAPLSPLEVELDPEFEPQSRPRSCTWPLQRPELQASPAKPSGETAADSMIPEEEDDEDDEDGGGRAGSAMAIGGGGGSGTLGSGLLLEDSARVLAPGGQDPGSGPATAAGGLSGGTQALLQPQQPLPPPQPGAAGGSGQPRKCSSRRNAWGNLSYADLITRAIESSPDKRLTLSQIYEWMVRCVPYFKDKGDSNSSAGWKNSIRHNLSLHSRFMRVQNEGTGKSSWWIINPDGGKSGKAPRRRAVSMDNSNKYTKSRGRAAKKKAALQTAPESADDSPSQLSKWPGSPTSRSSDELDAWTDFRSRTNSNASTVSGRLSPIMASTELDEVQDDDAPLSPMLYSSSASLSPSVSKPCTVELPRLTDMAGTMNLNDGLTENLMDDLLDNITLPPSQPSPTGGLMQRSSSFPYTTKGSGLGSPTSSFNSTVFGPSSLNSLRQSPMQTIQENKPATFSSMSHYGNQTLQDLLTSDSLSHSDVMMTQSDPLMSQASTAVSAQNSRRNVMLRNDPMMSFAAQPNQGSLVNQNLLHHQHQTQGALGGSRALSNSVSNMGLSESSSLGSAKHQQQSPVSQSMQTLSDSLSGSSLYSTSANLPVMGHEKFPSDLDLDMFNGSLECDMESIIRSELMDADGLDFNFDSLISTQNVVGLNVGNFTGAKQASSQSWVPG

binding: binds
Substance: FOXO3 (endogenous) (from UniProt O43524 1-673)
